Source: the supplement of paper PMC10849652
The other results are listed elsewhere or left out.

By UniProt entry, the sequences of proteins in these tests, tags left out. Where a name states a change or a piece, a line headed by the entry shows the natural chain unless it says otherwise.
UniProt Q53R41: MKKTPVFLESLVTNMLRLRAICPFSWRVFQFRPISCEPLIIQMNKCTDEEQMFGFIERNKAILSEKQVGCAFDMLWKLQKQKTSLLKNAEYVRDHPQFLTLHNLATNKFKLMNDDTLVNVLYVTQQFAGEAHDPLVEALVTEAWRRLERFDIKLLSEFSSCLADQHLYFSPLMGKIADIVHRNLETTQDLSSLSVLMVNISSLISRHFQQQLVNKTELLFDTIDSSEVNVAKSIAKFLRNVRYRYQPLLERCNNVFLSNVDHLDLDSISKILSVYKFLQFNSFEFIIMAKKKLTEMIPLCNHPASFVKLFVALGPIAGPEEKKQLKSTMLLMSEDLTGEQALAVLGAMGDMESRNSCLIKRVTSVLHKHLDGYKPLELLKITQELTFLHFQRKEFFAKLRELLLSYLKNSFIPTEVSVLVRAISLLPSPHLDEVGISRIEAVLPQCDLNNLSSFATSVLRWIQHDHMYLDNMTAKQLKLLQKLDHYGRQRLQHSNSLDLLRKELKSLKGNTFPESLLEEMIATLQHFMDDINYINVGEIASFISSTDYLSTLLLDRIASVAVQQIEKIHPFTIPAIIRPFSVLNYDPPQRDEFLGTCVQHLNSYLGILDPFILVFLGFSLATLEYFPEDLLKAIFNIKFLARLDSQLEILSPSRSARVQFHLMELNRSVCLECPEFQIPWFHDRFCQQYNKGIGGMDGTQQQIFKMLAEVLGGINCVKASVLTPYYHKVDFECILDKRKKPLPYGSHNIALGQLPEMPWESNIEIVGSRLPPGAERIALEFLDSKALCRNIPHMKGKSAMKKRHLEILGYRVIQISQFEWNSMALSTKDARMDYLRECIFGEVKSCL
UniProt Q8N6M3: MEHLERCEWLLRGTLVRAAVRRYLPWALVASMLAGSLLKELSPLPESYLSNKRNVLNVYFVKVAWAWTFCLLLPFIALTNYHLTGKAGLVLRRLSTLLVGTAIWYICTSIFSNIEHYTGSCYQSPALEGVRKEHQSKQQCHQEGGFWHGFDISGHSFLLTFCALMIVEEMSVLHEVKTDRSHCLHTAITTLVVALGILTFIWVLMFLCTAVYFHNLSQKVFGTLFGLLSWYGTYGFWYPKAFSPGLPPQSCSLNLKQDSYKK
UniProt Q8N3X1: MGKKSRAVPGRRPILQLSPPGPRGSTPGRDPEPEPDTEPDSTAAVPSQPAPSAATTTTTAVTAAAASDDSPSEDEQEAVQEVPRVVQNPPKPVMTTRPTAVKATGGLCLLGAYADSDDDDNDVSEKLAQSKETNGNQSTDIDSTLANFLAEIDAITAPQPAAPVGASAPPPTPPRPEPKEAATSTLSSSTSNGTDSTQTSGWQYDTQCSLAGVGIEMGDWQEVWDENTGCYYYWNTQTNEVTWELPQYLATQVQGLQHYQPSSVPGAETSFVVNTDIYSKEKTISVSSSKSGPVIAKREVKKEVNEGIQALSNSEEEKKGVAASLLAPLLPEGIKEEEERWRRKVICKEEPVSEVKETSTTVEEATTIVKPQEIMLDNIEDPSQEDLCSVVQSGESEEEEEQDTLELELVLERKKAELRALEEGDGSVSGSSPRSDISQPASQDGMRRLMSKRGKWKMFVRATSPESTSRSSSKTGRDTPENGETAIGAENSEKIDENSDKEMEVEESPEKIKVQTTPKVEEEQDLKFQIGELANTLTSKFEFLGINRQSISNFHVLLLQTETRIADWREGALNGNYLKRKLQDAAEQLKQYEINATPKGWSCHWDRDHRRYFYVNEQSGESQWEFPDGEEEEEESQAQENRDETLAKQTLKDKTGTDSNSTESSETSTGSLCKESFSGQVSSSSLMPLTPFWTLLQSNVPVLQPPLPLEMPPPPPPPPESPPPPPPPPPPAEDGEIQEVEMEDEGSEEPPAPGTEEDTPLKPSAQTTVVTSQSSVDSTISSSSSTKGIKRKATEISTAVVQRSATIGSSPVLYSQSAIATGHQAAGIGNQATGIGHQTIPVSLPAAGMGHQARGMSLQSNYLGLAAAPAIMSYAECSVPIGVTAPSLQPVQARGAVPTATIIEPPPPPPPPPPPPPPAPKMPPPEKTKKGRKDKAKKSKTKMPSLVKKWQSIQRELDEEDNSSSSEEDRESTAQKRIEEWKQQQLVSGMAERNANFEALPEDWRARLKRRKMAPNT
UniProt Q14320: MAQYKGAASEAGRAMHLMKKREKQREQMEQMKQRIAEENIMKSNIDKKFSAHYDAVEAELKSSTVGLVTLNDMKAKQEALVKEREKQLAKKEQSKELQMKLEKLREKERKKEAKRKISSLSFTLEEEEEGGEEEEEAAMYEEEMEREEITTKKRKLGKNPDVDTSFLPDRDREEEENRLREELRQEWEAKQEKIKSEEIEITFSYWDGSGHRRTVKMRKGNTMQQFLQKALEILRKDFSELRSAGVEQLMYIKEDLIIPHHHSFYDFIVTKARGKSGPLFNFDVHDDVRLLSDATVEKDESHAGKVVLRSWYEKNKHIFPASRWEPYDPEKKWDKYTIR
UniProt P07954: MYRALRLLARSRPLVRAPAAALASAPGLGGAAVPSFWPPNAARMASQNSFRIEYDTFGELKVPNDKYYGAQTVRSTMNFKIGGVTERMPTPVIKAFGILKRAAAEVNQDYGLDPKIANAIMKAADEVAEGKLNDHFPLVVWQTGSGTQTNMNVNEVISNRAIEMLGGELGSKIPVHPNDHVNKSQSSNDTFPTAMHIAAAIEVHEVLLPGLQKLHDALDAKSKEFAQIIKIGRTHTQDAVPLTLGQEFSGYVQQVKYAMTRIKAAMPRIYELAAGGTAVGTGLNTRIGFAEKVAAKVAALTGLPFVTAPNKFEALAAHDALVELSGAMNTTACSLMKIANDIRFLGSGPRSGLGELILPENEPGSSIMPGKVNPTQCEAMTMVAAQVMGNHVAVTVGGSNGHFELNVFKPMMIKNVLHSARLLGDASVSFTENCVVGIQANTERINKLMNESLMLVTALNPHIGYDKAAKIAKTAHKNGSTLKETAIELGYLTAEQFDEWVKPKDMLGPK
UniProt Q14192: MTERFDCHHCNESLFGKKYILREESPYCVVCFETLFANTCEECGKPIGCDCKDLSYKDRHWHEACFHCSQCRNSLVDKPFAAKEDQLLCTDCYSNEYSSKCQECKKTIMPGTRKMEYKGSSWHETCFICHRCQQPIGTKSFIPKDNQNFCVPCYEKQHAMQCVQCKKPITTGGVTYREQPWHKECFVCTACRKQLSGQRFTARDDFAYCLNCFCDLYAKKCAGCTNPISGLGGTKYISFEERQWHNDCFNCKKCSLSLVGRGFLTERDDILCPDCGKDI
UniProt Q8WVX9: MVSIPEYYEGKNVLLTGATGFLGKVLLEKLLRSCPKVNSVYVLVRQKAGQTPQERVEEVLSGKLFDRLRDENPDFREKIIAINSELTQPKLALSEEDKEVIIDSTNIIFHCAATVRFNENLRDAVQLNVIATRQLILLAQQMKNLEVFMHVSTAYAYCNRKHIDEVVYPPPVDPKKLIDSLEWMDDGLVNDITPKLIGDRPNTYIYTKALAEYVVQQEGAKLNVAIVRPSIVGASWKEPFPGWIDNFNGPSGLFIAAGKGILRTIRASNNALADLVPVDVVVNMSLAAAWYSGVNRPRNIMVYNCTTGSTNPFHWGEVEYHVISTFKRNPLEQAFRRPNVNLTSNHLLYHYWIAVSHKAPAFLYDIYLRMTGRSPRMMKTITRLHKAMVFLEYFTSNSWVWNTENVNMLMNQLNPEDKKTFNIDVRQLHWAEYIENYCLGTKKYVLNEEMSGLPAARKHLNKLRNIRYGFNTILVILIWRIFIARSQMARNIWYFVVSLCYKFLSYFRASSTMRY
UniProt Q13642: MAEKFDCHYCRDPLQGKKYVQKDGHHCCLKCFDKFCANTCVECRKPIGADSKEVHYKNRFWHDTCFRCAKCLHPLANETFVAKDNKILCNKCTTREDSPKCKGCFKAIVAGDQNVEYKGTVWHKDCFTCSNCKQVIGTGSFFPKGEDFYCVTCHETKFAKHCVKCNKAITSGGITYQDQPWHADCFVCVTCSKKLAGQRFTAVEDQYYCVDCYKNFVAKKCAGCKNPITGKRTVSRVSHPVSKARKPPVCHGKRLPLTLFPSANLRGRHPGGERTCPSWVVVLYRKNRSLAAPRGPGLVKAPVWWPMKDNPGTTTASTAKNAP
UniProt Q8N8J7: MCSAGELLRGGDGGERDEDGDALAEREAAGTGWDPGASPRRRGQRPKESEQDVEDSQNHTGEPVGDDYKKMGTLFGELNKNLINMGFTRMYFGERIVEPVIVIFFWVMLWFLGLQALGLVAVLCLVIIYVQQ
UniProt O95363: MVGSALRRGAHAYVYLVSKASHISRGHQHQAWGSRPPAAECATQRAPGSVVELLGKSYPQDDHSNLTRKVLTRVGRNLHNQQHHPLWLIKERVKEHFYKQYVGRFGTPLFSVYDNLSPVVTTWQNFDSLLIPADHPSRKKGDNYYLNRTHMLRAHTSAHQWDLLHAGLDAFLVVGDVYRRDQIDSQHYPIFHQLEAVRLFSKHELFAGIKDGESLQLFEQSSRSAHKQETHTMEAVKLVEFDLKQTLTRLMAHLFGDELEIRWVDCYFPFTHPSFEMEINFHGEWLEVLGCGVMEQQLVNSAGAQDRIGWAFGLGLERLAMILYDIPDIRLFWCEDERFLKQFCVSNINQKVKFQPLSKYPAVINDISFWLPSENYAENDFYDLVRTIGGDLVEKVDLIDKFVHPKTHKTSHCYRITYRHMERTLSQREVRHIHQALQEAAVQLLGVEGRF
UniProt Q9Y3D6: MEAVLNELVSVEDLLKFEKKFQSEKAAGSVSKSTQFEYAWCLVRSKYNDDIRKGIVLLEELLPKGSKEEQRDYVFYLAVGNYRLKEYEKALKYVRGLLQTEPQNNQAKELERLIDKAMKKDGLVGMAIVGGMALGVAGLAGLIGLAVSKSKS
UniProt Q9BXW9: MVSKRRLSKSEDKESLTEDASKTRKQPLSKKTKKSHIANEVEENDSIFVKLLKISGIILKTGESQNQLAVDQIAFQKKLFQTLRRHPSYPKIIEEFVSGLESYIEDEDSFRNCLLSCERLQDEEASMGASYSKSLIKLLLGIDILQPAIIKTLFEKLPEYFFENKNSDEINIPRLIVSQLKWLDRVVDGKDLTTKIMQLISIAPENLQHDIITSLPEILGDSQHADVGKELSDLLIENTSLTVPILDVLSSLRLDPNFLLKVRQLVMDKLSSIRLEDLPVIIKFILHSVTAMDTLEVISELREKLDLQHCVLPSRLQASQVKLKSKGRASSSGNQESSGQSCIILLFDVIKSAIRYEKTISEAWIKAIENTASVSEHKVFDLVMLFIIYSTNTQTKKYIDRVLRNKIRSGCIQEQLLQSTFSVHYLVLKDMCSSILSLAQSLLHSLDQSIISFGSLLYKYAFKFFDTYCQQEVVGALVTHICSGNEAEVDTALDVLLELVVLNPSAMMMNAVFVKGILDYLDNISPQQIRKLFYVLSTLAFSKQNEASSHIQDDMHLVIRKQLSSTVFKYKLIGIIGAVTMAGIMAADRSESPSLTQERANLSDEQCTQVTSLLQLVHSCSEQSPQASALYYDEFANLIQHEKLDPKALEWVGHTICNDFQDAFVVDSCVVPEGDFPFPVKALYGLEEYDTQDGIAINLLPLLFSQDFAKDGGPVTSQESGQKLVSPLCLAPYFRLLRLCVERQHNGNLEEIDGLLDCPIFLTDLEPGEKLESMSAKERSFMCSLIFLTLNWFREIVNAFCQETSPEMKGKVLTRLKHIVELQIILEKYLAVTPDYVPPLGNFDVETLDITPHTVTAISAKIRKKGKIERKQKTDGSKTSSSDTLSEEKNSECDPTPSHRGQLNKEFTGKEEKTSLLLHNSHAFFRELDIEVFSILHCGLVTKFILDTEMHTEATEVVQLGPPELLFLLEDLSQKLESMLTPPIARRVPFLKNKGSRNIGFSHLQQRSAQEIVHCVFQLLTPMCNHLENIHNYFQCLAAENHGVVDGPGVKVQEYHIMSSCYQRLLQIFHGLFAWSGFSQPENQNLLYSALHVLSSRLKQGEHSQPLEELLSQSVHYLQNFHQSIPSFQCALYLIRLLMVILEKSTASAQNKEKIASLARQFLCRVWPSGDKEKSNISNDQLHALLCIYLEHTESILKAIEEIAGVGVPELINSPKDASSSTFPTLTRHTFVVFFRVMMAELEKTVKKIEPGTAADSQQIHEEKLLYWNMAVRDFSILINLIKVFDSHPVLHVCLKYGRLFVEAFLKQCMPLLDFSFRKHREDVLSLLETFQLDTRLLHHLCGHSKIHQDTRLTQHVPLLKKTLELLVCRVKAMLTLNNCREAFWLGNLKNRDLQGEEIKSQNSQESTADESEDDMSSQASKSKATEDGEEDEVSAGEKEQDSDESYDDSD
UniProt P22087: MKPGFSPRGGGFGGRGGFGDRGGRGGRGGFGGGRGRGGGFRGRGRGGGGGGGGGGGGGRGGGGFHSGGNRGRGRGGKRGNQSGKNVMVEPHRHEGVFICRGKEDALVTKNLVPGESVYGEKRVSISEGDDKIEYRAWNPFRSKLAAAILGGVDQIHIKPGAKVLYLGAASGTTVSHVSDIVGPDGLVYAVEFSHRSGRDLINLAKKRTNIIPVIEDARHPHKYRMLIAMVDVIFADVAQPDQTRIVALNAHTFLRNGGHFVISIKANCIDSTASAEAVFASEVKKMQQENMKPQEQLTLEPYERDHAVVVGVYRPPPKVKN

Key:
Experiment in all cases: log2 fold change, soluble protein after heating vs DMSO (PISA); higher = thermal stabilisation; K562 cells, 10 uM, 30 min; active = over 0.2 and 3.5 SD of the protein, either way, in both replicates (recomputed)
[1] = compound: C1=CC=C(C=C1)[C@H](COC2=CC3=C(C=C2)NC(=O)N3)NC(=O)C4=CC=CN(C4=O)CC5=CC(=C(C=C5)F)F
Procedure, shortened: (§1)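 Values are thermal stability changes relative to control samples and are taken from duplicates. They are stated as log2 fold changes. Before quantification by TMTpro 16plex LC-MS/MS with equalised channel sums, K562 cells at 2×10^6 cells/mL were treated with 10 μM compound for 30 min, heated in aliquots for 3 min across 48°C-58°C, pooled, extracted in PBS with 0.5% NP-40 at 4°C, and centrifuged at 21,000xg for 90 min to give the soluble supernatant.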

[2] = compound: CC1=C(SC2=C1C(=N[C@H](C3=NN=C(N32)C)CC(=O)N)C4=CC=C(C=C4)Cl)C
Procedure, shortened: as §1

[3] = compound: CC1=C2C(=CC=C1)N=C(N(C2=O)C3=CC=CC=C3C)CN4C=NC5=C(N=CN=C54)N
Procedure, shortened: as §1

[4] = compound: Cc1sc2c(c1C)C(c1ccc(Cl)cc1)=N[C@@H](CC(=O)OC(C)(C)C)c1nnc(C)n1-2
Procedure, shortened: as §1

[5] = compound: c1ccc([C@@H]2C[C@H]2NC2CCNCC2)cc1
Procedure, shortened: as §1

Measured: log2 fold change

FASTKD1 (UniProt Q53R41)
inactive: [1] -0.038 | [2] 0.151 | [3] 0.013 | [4] 0.204 | [5] 0.07

FBXO33 (UniProt Q7Z6M2)
inactive: [1] -0.12

FLVCR1 (UniProt Q9Y5Y0)
inactive: [1] -0.035 | [2] 0 | [3] 0.032 | [4] -0.081 | [5] 0.049

FITM2 (UniProt Q8N6M3)
inactive: [1] 0.12

FNBP4 isoform 2 (UniProt Q8N3X1)
inactive: [1] 0.049 | [2] -0.014 | [3] 0.045 | [4] 0.014 | [5] 0.027

FKBP5 (UniProt Q13451)
inactive: [1] -0.141 | [2] 0.006 | [3] 0.101 | [4] -0.028 | [5] -0.097

FBLL1 (UniProt A6NHQ2)
inactive: [1] 0.151 | [2] -0.105 | [3] -0.272 | [4] 0.084 | [5] 0.111

FAM98B (UniProt Q52LJ0)
inactive: [1] 0.027 | [2] 0.008 | [3] -0.082 | [4] 0.045 | [5] -0.117

FAM50A (UniProt Q14320)
inactive: [1] -0.026 | [2] 0.032 | [3] 0.033 | [4] -0.025 | [5] 0.007

FLNA (UniProt P21333)
inactive: [1] -0.11 | [2] 0.016 | [3] 0.049 | [4] 0.019 | [5] -0.008

FN3K (UniProt Q9H479)
inactive: [1] 0.016 | [2] 0.033 | [3] 0.001 | [4] -0.003 | [5] 0.003

FKBP14 (UniProt Q9NWM8)
inactive: [1] 0.01 | [2] 0.104 | [3] -0.036 | [4] 0.026 | [5] -0.032

FBXO22 (UniProt Q8NEZ5)
inactive: [1] 0.039 | [2] 0.014 | [3] 0.024 | [4] -0.025 | [5] -0.033

FH (UniProt P07954)
inactive: [1] -0.008 | [2] 0.084 | [3] 0.021 | [4] -0.016 | [5] -0.05

FBXO30 (UniProt Q8TB52)
inactive: [1] -0.043 | [2] 0.074 | [3] 0.12 | [4] -0.017 | [5] -0.068

FAM89A (UniProt Q96GI7)
inactive: [1] 0.241

FAXDC2 (UniProt Q96IV6)
inactive: [1] -0.049

FLAD1 (UniProt Q8NFF5)
inactive: [1] 0.044 | [2] 0.159 | [3] 0.089 | [4] 0.028 | [5] -0.056

FBXL18 isoform 4 (UniProt Q96ME1)
inactive: [1] -0.027 | [2] 0.007 | [3] 0.012 | [4] -0.042 | [5] -0.007

FKBP8 isoform 2 (UniProt Q14318)
inactive: [1] 0.015 | [2] -0.075 | [3] 0.009 | [4] 0 | [5] -0.027

FAM32A (UniProt Q9Y421)
inactive: [1] 0 | [2] -0.15 | [3] 0.024 | [4] 0.021 | [5] 0.037

FAM91A1 (UniProt Q658Y4)
inactive: [1] 0 | [2] 0.04 | [3] 0.028 | [4] 0.013 | [5] -0.043

FAM210A (UniProt Q96ND0)
inactive: [1] 0.053 | [2] 0.068 | [3] -0.075 | [4] -0.058 | [5] 0.075

FHL2 (UniProt Q14192)
inactive: [1] 0.026 | [2] -0.007 | [3] 0.006 | [4] 0.017 | [5] 0.056

FBXL12 (UniProt Q9NXK8)
inactive: [1] -0.048 | [2] 0.144 | [3] 0.068 | [4] 0.085 | [5] -0.124

FASTKD2 (UniProt Q9NYY8)
inactive: [1] -0.026 | [2] 0.054 | [3] 0.071 | [4] 0.014 | [5] -0.002

FANCB (UniProt Q8NB91)
inactive: [1] -0.002 | [2] 0.057 | [3] 0.019 | [4] -0.056 | [5] 0.013

FMNL1 isoform 3 (UniProt O95466)
inactive: [1] -0.267

FEM1B (UniProt Q9UK73)
inactive: [1] -0.026 | [2] -0.02 | [3] 0.102 | [4] 0.008 | [5] 0.025

FAR1 (UniProt Q8WVX9)
inactive: [1] -0.002 | [2] 0.068 | [3] 0.104 | [4] -0.035 | [5] -0.011

FHL1 isoform 4 (UniProt Q13642)
inactive: [1] -0.161 | [2] -0.02 | [3] -0.001 | [4] -0.039 | [5] 0.09

FKBP9 (UniProt O95302)
inactive: [1] 0.038 | [2] 0.015 | [3] 0.026 | [4] 0.025 | [5] -0.041

FAM241A (UniProt Q8N8J7)
inactive: [1] -0.046 | [2] 0.034 | [3] 0.041 | [4] 0 | [5] 0.008

FLT4 (UniProt P35916)
inactive: [1] -0.056 | [2] -0.019 | [3] 0.037 | [4] -0.061 | [5] -0.112

FERMT3 (UniProt Q86UX7)
inactive: [1] -0.026 | [2] 0.066 | [3] 0.053 | [4] -0.018 | [5] -0.019

FAM78A (UniProt Q5JUQ0)
inactive: [1] 0.019 | [2] 0.068 | [3] 0.061 | [4] 0.018 | [5] -0.047

FGFR1OP (UniProt O95684)
inactive: [1] -0.005 | [2] 0.016 | [3] 0.064 | [4] 0.038 | [5] -0.028

FCSK isoform 2 (UniProt Q8N0W3)
inactive: [1] -0.04 | [2] 0.002 | [3] 0.017 | [4] 0.009 | [5] 0.03

FBXO4 (UniProt Q9UKT5)
inactive: [1] -0.013 | [2] 0.04 | [3] 0.022 | [4] -0.031 | [5] -0.09

FKBP15 (UniProt Q5T1M5)
inactive: [1] -0.006 | [2] 0.02 | [3] 0.106 | [4] 0.013 | [5] -0.027

FCGR2C (UniProt P31995)
inactive: [1] 0.024 | [2] 0.03 | [3] 0.001 | [4] -0.028 | [5] 0.084

FHAD1 isoform 3 (UniProt B1AJZ9)
inactive: [1] -0.258 | [2] -0.018 | [3] -0.153 | [4] -0.065 | [5] -0.092

FARS2 (UniProt O95363)
inactive: [1] -0.021 | [2] 0.022 | [3] 0.006 | [4] 0.069 | [5] -0.018

FBXL20 (UniProt Q96IG2)
inactive: [1] -0.068 | [2] 0.005 | [3] 0.03 | [4] -0.022 | [5] 0.005

Quoted from the entries so far (twelve entries):
FLAD1 (UniProt Q8NFF5)
inactive: [1] 0.044 | [2] 0.159 | [3] 0.089 | [4] 0.028 | [5] -0.056

FBXL18 isoform 4 (UniProt Q96ME1)
inactive: [1] -0.027 | [2] 0.007 | [3] 0.012 | [4] -0.042 | [5] -0.007

FKBP8 isoform 2 (UniProt Q14318)
inactive: [1] 0.015 | [2] -0.075 | [3] 0.009 | [4] 0 | [5] -0.027

FAM32A (UniProt Q9Y421)
inactive: [1] 0 | [2] -0.15 | [3] 0.024 | [4] 0.021 | [5] 0.037

FAM91A1 (UniProt Q658Y4)
inactive: [1] 0 | [2] 0.04 | [3] 0.028 | [4] 0.013 | [5] -0.043

FAM210A (UniProt Q96ND0)
inactive: [1] 0.053 | [2] 0.068 | [3] -0.075 | [4] -0.058 | [5] 0.075

FHL2 (UniProt Q14192)
inactive: [1] 0.026 | [2] -0.007 | [3] 0.006 | [4] 0.017 | [5] 0.056

FBXL12 (UniProt Q9NXK8)
inactive: [1] -0.048 | [2] 0.144 | [3] 0.068 | [4] 0.085 | [5] -0.124

FASTKD2 (UniProt Q9NYY8)
inactive: [1] -0.026 | [2] 0.054 | [3] 0.071 | [4] 0.014 | [5] -0.002

FANCB (UniProt Q8NB91)
inactive: [1] -0.002 | [2] 0.057 | [3] 0.019 | [4] -0.056 | [5] 0.013

FMNL1 isoform 3 (UniProt O95466)
inactive: [1] -0.267

FEM1B (UniProt Q9UK73)
inactive: [1] -0.026 | [2] -0.02 | [3] 0.102 | [4] 0.008 | [5] 0.025

The listing continues:

FLYWCH2 (UniProt Q96CP2)
inactive: [1] 0.036 | [2] -0.007 | [3] -0.044 | [4] -0.014 | [5] -0.051

FIS1 (UniProt Q9Y3D6)
inactive: [1] 0.047 | [2] 0.021 | [3] 0.035 | [4] -0.081 | [5] -0.011

FANCD2 isoform 1 (UniProt Q9BXW9)
inactive: [1] -0.018 | [2] 0.068 | [3] 0.159 | [4] -0.041 | [5] -0.009

FLOT1 (UniProt O75955)
inactive: [1] 0.064 | [2] -0.219 | [3] 0.045 | [4] -0.167 | [5] -0.137

FBLN1 (UniProt P23142)
inactive: [1] -0.069 | [2] -0.026 | [3] 0.045 | [4] -0.021 | [5] 0.128

FBXW9 (UniProt Q5XUX1)
inactive: [1] -0.07 | [2] 0.032 | [3] -0.015 | [4] 0.07 | [5] -0.024

FBXW2 (UniProt Q9UKT8)
inactive: [1] 0.093 | [2] 0.052 | [3] -0.025 | [4] 0.044 | [5] 0.237

FN3KRP (UniProt Q9HA64)
inactive: [1] 0.025 | [2] 0.016 | [3] 0.024 | [4] -0.011 | [5] 0.044

FAM83D (UniProt Q9H4H8)
inactive: [1] -0.068 | [2] 0.027 | [3] 0 | [4] 0.045 | [5] 0.06

FBXO38 (UniProt Q6PIJ6)
inactive: [1] 0.019 | [2] 0.014 | [3] 0.105 | [4] 0.024 | [5] 0.033

FKBP3 (UniProt Q00688)
inactive: [1] 0.014 | [2] 0.003 | [3] 0.01 | [4] 0.011 | [5] -0.016

FBL (UniProt P22087)
inactive: [1] 0.095 | [2] -0.267 | [3] -0.126 | [4] 0.18 | [5] 0.074
